The values below come from PubChem BioAssay AID2685 (National Center for Advancing Translational Sciences (NCATS), 2010).

The experiment in a line: qHTS Assay for Lipid Storage Modulators in Drosophila S3 Cells.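 As to cell number change: cells counted by Cell Tracker Red CMTPX staining in the red channel.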 The settings on record: BODIPY lipid droplet fluorescence, 18-24 h; for cell number change: measured here: cell count max response, cells fed with added oleic acid. An outline of the steps:
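Drosophila S3 cells got compounds at several concentrations plus oleic acid (400 uM solution). Laser-scanning cytometry with 488 nm excitation read lipid droplets at 500-530 nm and cells at 575-640 nm. Percent activity was relative to 20 uM Triacsin C.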
For orientation: qHTS replaces the single test concentration by a dilution series.

The mark [1] stands for this setting: measured here: cell number channel AC50, cells fed with added oleic acid.
The mark [2] stands for this setting: measured here: lipid fluorescence (Fed channel) AC50, cells fed with added oleic acid.

Molecules are shown by their SMILES. This is one part of the list. These are further read-outs of the screen, such as a control signal, another cell line or another target. No call is given for them. Compounds called inactive in the main read-out are mostly missing here. Words in brackets tell the shape of the fitted curve; partial curves, single points and poor fits give uncertain potencies.

As to `O=C(CNC(=O)c1ccccc1F)OCc1nc2ccccc2s1`, the cell number change was 0.841%.
Regarding `CC(CC(=O)N(CCC1=CCCCC1)c1c(N)n(Cc2ccccc2)c(=O)[nH]c1=O)c1ccccc1` (configuration not stated), the cell number change is -32.6%. Moreover, under setting [1], the AC50 was 29100 nM [falling, single point].
With `COc1ccc(CC(=O)Nc2cccc(S(=O)(=O)N3CCCC3)c2)cc1OC`, the cell number change was -34.2%. For the same molecule, the concentration at half-maximal activity (AC50) under setting [1] was 10300 nM [falling, partial curve, poor fit]. In addition, the AC50 under setting [2] is 23100 nM [falling, partial curve].
On to `Cc1oc(-c2ccccc2Cl)nc1CSc1nc2c(c(=O)[nH]1)CCC2`, for which the cell number change is 8.15%. In addition, under setting [2], the concentration at half-maximal activity (AC50) was 16400 nM [rising, single point].
`O=C(CCCCCCCCC(=O)N/N=C/c1ccco1)N/N=C/c1ccco1`: the cell number change turned out to be 29.6%. In addition, the half-maximal activity concentration (AC50) under setting [2] is 14600 nM [rising, single point].
With `COc1ccc(OC)c(NC(=O)CNC(=O)Cn2c(C)cc3ccccc3c2=O)c1`, the cell number change is -55.5%. In addition, the AC50 under setting [1] is 29100 nM [falling, single point].
As to `Cc1ccc(NC(=O)/C=C/c2ccc([N+](=O)[O-])s2)c(C)c1`, the cell number change was -34.9%. Besides, under setting [1], the concentration at half-maximal activity (AC50) is 1640 nM [falling, full curve, poor fit]. Under setting [2], the half-maximal activity concentration (AC50) was 1640 nM [falling, partial curve, poor fit].
On to `O=C(N/N=C/c1ccc2c(c1)OCO2)c1ccc(NC(=O)c2ccc(F)cc2)cc1`, for which the cell number change was found to be 17.1%. Moreover, the half-maximal activity concentration (AC50) under setting [2] is 8200 nM [falling, single point].
Regarding `COc1ccc(N2CCN(CC(O)COC(c3ccccc3)c3ccccc3)CC2)cc1` (configuration not stated), the cell number change was -14.3%.
Take `COc1ccc(-c2cn(-c3ccc(C)cc3)c(=O)n2CC(=O)Nc2ccc(OC)c(OC)c2)cc1`: the cell number change stood at 42.6%. Further, under setting [1], the AC50 is 2310 nM [rising, partial curve].
As to `Cc1ccsc1/C=N/NC(=O)Nc1ccccc1`, the AC50 is, setting by setting: under setting [1], 651 nM [rising, single point]; under setting [2], 580 nM [rising, single point].
In the case of `C[C@H](NC(=O)[C@@H]1Cc2ccccc2CN1)C(=O)Nc1ccc2c(c1)OCO2`, the cell number change came out at 10.6%. Moreover, the half-maximal activity concentration (AC50) under setting [1] was 3260 nM [rising, single point].
Consider `CC(C)(C)C(=O)Nc1nc(-c2ccccc2)ns1`, for which the cell number change is -32%. The AC50 under setting [1] was 29100 nM [falling, single point]. For the same molecule, the AC50 under setting [2] was 29100 nM [falling, single point].
On to `Cc1oc(-c2ccccc2F)nc1CN1CCC(C(=O)NCc2cccs2)CC1`, for which the cell number change worked out at 15%.
Consider `COc1cc(OC)cc(-c2c(-c3cccs3)c3cc(-c4ccc(OC)c(OC)c4)ccc3n2C)c1`, for which the cell number change is 26.6%. Also, the AC50 under setting [2] is 18400 nM [rising, partial curve, poor fit].
As for `CCOC(=O)N1CCN(C(=O)COc2ccc(S(=O)(=O)NC3CCCCC3)cc2C)CC1`, under setting [1], the AC50 was 4110 nM [rising, partial curve].
In the case of `COc1ccc(NC(=O)c2ccc3c(c2)NC(=O)CS3)cc1S(=O)(=O)Nc1ccc(Br)cc1`, the cell number change was -22.3%.
As to `Cc1ccc(Cn2nc3c4cc(F)ccc4n(Cc4ccc(F)cc4)cc-3c2=O)cc1`, the cell number change is -5.56%.
For the molecule `O=C1C=C(c2ccc3[nH]ccc3c2)C[C@@H](c2ccc(F)cc2)C1`, the cell number change is -4.98%. Also, the half-maximal activity concentration (AC50) under setting [2] was 1160 nM [falling, single point].
In the case of `O=c1c(-c2ccccc2)c[nH]n1-c1cccc([N+](=O)[O-])c1`, the cell number change is -12.4%. In addition, the concentration at half-maximal activity (AC50) under setting [2] was 4.11 nM [rising, full curve, poor fit].
For the molecule `COC(=O)/C(=C\Nc1ccc(Cl)cc1Cl)NC(=O)c1ccccc1`, the cell number change is -15.8%. Moreover, the half-maximal activity concentration (AC50) under setting [2] is 517 nM [rising, full curve].
In the case of `COc1ccc(Cc2nnc(SCC(=O)Nc3ccc(N4CCOCC4)cc3)o2)cc1`, the cell number change was found to be 21%. The AC50 under setting [2] was 2310 nM [rising, partial curve].
Consider `O=S1(=O)N=C2CCCCCN2C(c2ccc(F)cc2)N1` (configuration not stated), for which the cell number change is -44.2%. Further, under setting [1], the concentration at half-maximal activity (AC50) is 231 nM [falling, partial curve, poor fit]. In addition, under setting [2], the half-maximal activity concentration (AC50) was 651 nM [falling, full curve, poor fit].
With `O=C(/C=C/c1ccccc1)NC1CCCc2ccccc21` (configuration not stated), the cell number change was found to be 17.2%. The AC50 under setting [2] is 5.17 nM [falling, full curve, poor fit].
`Cc1ccc(C)c(NC(=O)CSc2nc(C)cs2)c1`: the cell number change is -26.3%. Moreover, the half-maximal activity concentration (AC50) under setting [2] was 51.7 nM [falling, full curve, poor fit].
Consider `O=C1N[C@H](Cc2ccccc2)CO1`, for which the cell number change was determined as 15.4%. For the same molecule, under setting [2], the half-maximal activity concentration (AC50) was 32600 nM [rising, single point].
With `Cc1cccc(N2CCN(S(=O)(=O)c3ccc4c(c3)NC(=O)CS4)CC2)c1C`, the cell number change is -21.1%. The AC50 under setting [2] was 9200 nM [falling, partial curve].
Take `Cc1cccc(C(=O)n2cnnc2N)c1`: the cell number change is -0.264%.
With `COc1ccc(N2CCN(C3CC(=O)NC3=O)CC2)cc1` (configuration not stated), the cell number change is -8.72%. The AC50 under setting [2] was 231 nM [falling, full curve, poor fit].
Regarding `CCOc1ccc(NC2=CC(=O)CCC2)cc1`, the cell number change stood at 24.8%. In addition, the AC50 under setting [2] was 18400 nM [rising, partial curve, poor fit].
In the case of `CCOc1ccc(N2CCCCn3c2nc2c3c(=O)[nH]c(=O)n2C)cc1`, the cell number change stood at 8.69%. Also, under setting [1], the AC50 was 517 nM [falling, single point]. For the same molecule, the half-maximal activity concentration (AC50) under setting [2] is 4110 nM [rising, full curve, poor fit].
Regarding `O=C1C(=O)N(O)C2CCCCC2N1O` (configuration not stated), the cell number change was -26.2%. For the same molecule, the half-maximal activity concentration (AC50) under setting [2] was 103 nM [falling, full curve, poor fit].
Regarding `CCOC(=O)C1CCCN(C(=O)c2ccc3oc(CCc4ccccc4)nc3c2)C1` (configuration not stated), the cell number change amounted to 6.6%. In addition, under setting [2], the AC50 was 130 nM [falling, full curve, poor fit].
`COc1cc(Cl)c(S(=O)(=O)N2CCN(Cc3ccc4c(c3)OCO4)CC2)cc1Cl`: the cell number change was -8.25%.
`CCOc1cc2[nH]c(=O)n(CCCCCC(=O)NCc3ccco3)c(=O)c2cc1OCC`: the cell number change was -53.9%. Besides, the AC50 under setting [1] is 29100 nM [falling, single point].
Consider `CCOC(=O)c1c(C)n(C)c2ccc(O)c(CN(CC)CC)c12`, for which the cell number change turned out to be 52.4%. The AC50 under setting [1] was 32600 nM [rising, single point]. The AC50 under setting [2] is 29100 nM [rising, partial curve].
Consider `COc1ccc(/C=C(\C#N)C(=O)OC2CCOC2=O)cc1` (configuration not stated), for which, under setting [2], the half-maximal activity concentration (AC50) is 65.1 nM [falling, partial curve, poor fit].
Turning to `O=C(CO/N=C/c1ccc(OC(F)F)cc1)NC1CCCCCC1`, the AC50 under setting [1] is 580 nM [rising, single point].

As usually defined, the AC50 is the midpoint of the concentration-response curve, whichever way the signal moves.
